Experiment [1] concerns the target human LILRB2 (human). The experiment can be described thus: summary of the chimeric antibody screens.
For experiment [2], the target named is human LILRB2 (human). As to the kind of experiment: description of the treatments in the histoculture example.
In experiment [3] the target is human LILRB2 (human). The experiment can be described thus: BLI ForteBio Octet Red96; antibody on anti-human capture sensor, LILRB2 at 50 nM and 5 nM.
Experiment [4] deals with Cyno Monocytes / Cyno Neutrophils (Macaca fascicularis). The experiment can be described thus: flow cytometry, cyno whole blood, biotinylated mAb 25 ug/mL.
Experiment [5] addresses Rhesus Monocytes / Rhesus Neutrophils (Macaca mulatta). As to the kind of experiment: flow cytometry, rhesus whole blood, biotinylated mAb 25 ug/mL. A general note: Flow cytometry measures light scatter and fluorescence of single cells or particles in a stream.
For experiment [6], the target named is Cyno Monocytes / Cyno Neutrophils (Macaca fascicularis). The experiment can be described thus: flow cytometry, cyno whole blood.
Experiment [7] addresses Rhesus Monocytes / Rhesus Neutrophils (Macaca mulatta). As to the kind of experiment: flow cytometry, rhesus whole blood, biotinylated mAb.
Experiment [8] addresses Cyno Monocytes / Cyno Neutrophils (Macaca fascicularis). The experiment can be described thus: flow cytometry, cyno whole blood, biotinylated mAb.
Experiment [9] addresses Rhesus Monocytes / Rhesus Neutrophils (Macaca mulatta). The experiment can be described thus: flow cytometry, rhesus whole blood.

Changes are numbered by the printed parent chain. No constants are given. Whether binding was seen depends on the method and setting. For part of these data: A result given as binding can be weak or reduced; the word gives no strength.

B1: J-04 (antibody, human IgG4 S228P, kappa, V domains shown)
VH: QVQLQQSGAELVRPGASVTLSCKASGYTFADYEIHWVKQTPVHGLEWIGAIDPETGGTAYNQKFKGKAILTADKSSSTAYMELRSLTSEDSAVYYCTRYYDYDDAMDYWGQGTSVTVSS
VL: QIVLTQSPAIMSASPGEKVTMTCSASSSVSFMHWYQQKSGTSPKRWIYGTSKLASGVPARFSGSGSGTSYSLTISSMEAEDAATYYCQQWNGNPFTFGSGTKLETKR
For B1, the binding entry with human LILRB2 (human) [1] and with human LILRB2 (human) [2] was “binds” in each case.

B2: J-19.h6 (antibody, human IgG4 S228P, kappa, V domains shown)
VH: QITLKESGPTLVKPTQTLTLTCTFSGFSLNTYAMGVSWIRQPPGKALEWLASIWWNGNKYNNPSLKSRLTVTKDTSKNQVVLTMTNMDPVDTATYYCAHSRIIDFTDYVMDAWGQGTLVTVSS
VL: DIQMTQSPSSLSTSVGDRVTITCRASEDIYNDLAWYQQKPGKAPKLLIYNANSLHTGVASRFSGSGSGTDFTFTISSLQPEDVATYFCQQYYDYPLTFGQGTKLEIKR
B2: the binding result with human LILRB2 (human) [3] is listed as “binds”.

B3: J-19.h7 (antibody, human IgG4 S228P, kappa, V domains shown)
VH: B2 VH with D104E
VL: B2 VL
For B3, the binding entry in the experiment with human LILRB2 (human) [3] is “binds”.

B4: J-03 (antibody, human IgG4 S228P, kappa, V domains shown)
VH: QVQLQQSGAELVRPGASVTLSCKASGYKFTDYEMHWVKQTPVHGLEWIGAIDPETNGTAYNKKFKGKAILTADKSSSTAYMELRSLTSEDSAVYYCTRGDYDFSAWFAYWGQGTLVTVSA
VL: DIVLTQSPASLAVSLGQRATISCRASESVDNYDISFMHWYQQKPGQPPKLLIYRASNLESGIPARFSGSGSRTDFTLTINPVETDDVATYYCQQSNKDPRTFGGGTKLEIKR
Consider B4, for which, in the experiment with human LILRB2 (human) [1], the binding result was “binds”.

B5: J-19 (antibody, human IgG4 S228P, kappa, V domains shown)
VH: QVTLKESGPGILQPSHTLSLTCSFSGFSLNTYAMGVSWIRQPSGKGLEWLASIWWNGNKYNNPSLKSRLTVSKDTSNNQAFLKVTSVDTADTATYYCAHSRIIRFTDYVMDAWGQGASVTVSS
VL: DIQMTQSPASLSTFLGEPVTIECRASEDIYNDLAWYQQKPGKSPQLLIYNANSLHTGVPSRFSGSGSGTQYSLKINSLQSEDVASYFCQQYYDYPLTFGSGTKLEIKR
Regarding B5, the binding entry (in experiment [4]; in the experiment with human LILRB2 (human) [1]; with human LILRB2 (human) [2]; in experiment [5]) was “binds” each time.

B6: J-17 (antibody, human IgG4 S228P, kappa, V domains shown)
VH: QIQLVQSGPELKKPGETVKISCKASGYTFTTYGLSWVKQTPGKGLKWMGWINTYSGVPTYTDDFKGRFAFSLETSASTAYLQINNLKNEDTATYFCARPYDFDQVGFAYWGQGTLVTVSA
VL: SIVMTQTPKFLLVSAGDRVSITCKASQTVSSDVAWYQQKAGQSPKLLIYYASNRYTGVPDRFTGSGYGTDFTFTISTVQAEDLAVYFCQQDYSSPFTFGGGSKLEIKR
With B6, the binding entry in experiment [6] is given as “no binding (tested: 25 ug/mL)”; with human LILRB2 (human) [1], “binds”; in [7], “no binding (tested: 25 ug/mL)”; with human LILRB2 (human) [2], “binds”; in [8] it was “no binding (tested: 25 ug/mL)”; in [9], “no binding (tested: 25 ug/mL)”.

B7: J-11 (antibody, human IgG4 S228P, kappa, V domains shown)
VH: QVQLQQSGAELMKPGASVKLSCKATGYILTGYWIEWVKQRPGHGLEWIGEILPGSGSTNYNENFKGKATFTADTSSNTAYMQLSSLTTEDSAIYYCARAVLGYFDYWGQGTTLTVSS
VL: DIVMTQSHKFMSTSVGDRVSITCKASQDVSTAVAWYQQKPGQSPKLLIYWASTRHTGVPDRFTGSGSGTDYTLTISSVQAEDLALYYCHQHYSTYTFGGGTKLEIKR
For the molecule B7, the binding result in experiment [6] is “no binding (tested: 25 ug/mL)”; with human LILRB2 (human) [1] it was “binds”; in [7], “no binding (tested: 25 ug/mL)”; with human LILRB2 (human) [2], “binds”; in experiment [8] it was “no binding (tested: 25 ug/mL)”; in experiment [9], “no binding (tested: 25 ug/mL)”.

The values above are taken from patent US20200339690A1.
